Our source for the binding values is article PMC11538512.

Chains of the proteins cited; added tags and fusions are not shown.
UniProt Q14145: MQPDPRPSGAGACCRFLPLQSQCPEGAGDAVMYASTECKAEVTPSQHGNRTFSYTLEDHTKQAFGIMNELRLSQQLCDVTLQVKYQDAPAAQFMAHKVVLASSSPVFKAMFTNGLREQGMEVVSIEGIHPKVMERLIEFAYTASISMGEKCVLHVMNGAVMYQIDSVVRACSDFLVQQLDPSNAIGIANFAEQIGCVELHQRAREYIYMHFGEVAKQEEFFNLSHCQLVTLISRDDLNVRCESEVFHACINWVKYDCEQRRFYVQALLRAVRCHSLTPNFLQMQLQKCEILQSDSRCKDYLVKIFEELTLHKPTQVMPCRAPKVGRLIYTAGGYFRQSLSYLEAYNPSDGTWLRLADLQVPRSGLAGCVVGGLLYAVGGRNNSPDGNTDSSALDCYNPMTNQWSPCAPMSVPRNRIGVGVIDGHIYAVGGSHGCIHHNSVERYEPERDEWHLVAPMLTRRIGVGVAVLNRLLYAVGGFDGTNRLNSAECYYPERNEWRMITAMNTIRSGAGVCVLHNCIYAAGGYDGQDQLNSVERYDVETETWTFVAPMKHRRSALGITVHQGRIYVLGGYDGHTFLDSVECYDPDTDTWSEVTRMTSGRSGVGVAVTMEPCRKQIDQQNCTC
UniProt Q15149: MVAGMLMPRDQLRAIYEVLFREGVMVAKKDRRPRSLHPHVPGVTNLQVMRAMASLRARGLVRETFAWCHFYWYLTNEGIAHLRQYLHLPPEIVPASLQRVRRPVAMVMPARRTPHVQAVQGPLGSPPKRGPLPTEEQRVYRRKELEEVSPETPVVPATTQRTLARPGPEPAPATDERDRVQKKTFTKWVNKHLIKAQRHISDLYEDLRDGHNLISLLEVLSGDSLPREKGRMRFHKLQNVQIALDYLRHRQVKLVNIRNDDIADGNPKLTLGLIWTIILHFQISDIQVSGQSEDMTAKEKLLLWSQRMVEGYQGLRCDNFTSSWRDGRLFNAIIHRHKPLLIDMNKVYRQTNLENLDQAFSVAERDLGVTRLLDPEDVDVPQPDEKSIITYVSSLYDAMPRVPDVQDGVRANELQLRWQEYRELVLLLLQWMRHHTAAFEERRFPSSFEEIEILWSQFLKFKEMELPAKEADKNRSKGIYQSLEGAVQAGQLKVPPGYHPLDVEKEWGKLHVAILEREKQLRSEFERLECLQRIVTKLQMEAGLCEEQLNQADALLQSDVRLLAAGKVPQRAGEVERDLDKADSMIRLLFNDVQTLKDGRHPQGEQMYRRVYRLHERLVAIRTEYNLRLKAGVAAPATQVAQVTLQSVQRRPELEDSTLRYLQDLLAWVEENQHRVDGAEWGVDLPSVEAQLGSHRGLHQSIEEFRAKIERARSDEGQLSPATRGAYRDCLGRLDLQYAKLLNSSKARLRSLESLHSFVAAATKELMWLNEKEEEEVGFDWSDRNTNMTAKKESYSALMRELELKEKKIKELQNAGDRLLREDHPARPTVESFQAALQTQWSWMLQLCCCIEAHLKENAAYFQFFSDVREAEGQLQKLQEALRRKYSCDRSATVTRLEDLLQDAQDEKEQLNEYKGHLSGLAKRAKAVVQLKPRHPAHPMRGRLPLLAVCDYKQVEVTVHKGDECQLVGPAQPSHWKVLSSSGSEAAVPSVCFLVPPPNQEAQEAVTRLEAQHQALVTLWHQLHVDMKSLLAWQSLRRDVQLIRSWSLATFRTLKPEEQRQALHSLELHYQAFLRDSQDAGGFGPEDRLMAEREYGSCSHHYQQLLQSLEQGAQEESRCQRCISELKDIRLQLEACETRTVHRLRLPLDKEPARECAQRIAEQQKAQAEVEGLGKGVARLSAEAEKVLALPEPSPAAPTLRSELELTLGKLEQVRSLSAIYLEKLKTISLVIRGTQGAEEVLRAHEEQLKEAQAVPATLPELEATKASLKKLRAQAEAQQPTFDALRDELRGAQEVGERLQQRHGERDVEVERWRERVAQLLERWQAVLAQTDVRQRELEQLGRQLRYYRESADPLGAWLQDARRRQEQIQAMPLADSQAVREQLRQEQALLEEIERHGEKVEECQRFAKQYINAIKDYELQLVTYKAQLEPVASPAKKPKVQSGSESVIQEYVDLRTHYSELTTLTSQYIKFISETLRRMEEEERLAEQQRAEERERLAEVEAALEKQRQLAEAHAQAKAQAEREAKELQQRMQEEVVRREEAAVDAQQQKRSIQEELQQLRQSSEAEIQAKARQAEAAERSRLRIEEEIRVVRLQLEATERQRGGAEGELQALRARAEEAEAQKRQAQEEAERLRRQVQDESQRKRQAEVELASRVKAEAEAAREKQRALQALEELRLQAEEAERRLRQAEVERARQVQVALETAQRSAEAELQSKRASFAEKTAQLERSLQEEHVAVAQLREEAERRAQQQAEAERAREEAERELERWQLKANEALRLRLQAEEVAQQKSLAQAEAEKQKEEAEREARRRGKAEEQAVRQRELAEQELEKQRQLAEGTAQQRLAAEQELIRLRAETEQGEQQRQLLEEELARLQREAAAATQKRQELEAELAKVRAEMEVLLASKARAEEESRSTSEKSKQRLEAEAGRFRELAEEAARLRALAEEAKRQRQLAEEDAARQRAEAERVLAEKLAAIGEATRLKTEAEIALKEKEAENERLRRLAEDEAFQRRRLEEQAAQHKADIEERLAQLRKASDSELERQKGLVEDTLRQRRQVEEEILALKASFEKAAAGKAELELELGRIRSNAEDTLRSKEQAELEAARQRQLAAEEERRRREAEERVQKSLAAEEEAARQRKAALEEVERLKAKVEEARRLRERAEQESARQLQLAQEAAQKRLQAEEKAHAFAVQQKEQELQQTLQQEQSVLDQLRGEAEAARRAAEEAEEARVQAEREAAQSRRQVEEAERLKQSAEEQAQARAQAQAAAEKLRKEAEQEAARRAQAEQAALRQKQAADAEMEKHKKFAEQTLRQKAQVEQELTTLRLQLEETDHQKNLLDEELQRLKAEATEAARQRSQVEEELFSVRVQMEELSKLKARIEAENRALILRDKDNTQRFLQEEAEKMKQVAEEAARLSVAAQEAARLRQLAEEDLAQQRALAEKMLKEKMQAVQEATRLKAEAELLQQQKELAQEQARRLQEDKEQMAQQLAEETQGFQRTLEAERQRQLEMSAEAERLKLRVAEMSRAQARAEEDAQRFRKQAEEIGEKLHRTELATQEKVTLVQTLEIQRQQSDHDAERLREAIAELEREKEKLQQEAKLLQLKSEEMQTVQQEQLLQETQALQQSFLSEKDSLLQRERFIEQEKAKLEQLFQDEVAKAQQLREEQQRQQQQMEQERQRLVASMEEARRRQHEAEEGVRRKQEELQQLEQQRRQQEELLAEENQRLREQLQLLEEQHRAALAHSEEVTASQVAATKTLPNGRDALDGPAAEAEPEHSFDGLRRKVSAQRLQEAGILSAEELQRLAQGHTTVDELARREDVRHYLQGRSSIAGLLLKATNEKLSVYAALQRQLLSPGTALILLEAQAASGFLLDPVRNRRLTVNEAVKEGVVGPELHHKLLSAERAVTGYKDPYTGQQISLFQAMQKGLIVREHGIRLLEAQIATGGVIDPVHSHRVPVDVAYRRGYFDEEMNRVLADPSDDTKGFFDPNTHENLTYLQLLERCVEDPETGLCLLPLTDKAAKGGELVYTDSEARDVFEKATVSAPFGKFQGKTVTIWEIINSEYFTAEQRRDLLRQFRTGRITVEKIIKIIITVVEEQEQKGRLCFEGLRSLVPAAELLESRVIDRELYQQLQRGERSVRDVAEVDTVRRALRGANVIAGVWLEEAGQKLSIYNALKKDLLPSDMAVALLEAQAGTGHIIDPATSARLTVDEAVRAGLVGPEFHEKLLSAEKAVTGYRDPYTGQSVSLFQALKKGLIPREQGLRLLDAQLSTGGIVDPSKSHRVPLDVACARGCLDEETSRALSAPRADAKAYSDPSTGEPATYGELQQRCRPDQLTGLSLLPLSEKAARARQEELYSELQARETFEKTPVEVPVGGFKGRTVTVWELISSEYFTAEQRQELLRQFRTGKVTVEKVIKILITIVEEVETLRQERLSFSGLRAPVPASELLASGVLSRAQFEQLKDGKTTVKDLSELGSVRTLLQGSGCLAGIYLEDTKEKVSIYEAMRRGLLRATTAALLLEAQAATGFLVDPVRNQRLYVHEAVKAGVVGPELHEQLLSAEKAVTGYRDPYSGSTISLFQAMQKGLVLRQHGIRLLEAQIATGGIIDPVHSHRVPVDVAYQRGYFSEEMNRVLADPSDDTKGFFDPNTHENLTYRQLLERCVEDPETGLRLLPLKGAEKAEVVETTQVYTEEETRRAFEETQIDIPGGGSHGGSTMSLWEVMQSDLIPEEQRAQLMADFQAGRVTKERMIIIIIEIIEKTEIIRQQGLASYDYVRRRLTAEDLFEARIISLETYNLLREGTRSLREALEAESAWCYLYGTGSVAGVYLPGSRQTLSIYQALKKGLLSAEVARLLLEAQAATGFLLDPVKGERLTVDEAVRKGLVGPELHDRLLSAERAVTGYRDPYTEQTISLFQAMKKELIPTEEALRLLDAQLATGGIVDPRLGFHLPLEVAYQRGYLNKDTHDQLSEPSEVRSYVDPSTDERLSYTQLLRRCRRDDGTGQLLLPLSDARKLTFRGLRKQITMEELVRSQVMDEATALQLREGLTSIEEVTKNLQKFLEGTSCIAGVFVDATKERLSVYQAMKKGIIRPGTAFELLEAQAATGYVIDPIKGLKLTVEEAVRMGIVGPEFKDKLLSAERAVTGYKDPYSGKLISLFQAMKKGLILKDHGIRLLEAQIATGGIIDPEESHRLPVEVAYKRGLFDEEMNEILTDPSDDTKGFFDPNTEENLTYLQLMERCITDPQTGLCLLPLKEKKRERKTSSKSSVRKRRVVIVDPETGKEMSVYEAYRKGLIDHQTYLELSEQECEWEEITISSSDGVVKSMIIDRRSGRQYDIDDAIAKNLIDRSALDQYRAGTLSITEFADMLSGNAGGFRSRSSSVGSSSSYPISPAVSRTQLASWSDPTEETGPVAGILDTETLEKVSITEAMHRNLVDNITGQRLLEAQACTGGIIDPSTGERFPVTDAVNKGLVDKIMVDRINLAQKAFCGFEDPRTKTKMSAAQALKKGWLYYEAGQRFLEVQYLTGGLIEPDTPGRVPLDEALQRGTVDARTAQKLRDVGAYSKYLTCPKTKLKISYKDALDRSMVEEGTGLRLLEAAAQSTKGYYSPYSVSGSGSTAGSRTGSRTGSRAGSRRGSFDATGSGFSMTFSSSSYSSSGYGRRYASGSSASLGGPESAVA

These are yes or no findings as the source states them, for the method shown. Binding seen in cells or lysates may run through a third protein. Some binding calls cover weakened binding; strength is not graded here.

The target of test [1] is KEAP1 (human (endogenous in KYSE450)) (UniProt Q14145). Description: co-IP; endogenous proteins in KYSE450 lysate (cells with shC or shp63 in Fig. 2L); IP with anti-KEAP1 or anti-PLEC, normal IgG as control; lysis buffer 50 mM Tris HCl pH 7.4, 150 mM NaCl, 1 mM EDTA, 1% Nonidet P-40; overnight 4 °C; immunoblot. (A western blot detects proteins with antibodies after separation by electrophoresis.)

Test [2] has as its target Plectin (PLEC) (human (endogenous in KYSE450)) (UniProt Q15149). The test is described as above.
The target in test [3] is HA-tagged PLEC^WT (in KYSE450) (human) (UniProt Q15149). Description: co-IP; KYSE450 cells expressing HA-tagged PLEC^WT, PLEC^ΔEQGE or PLEC^EQGA; anti-HA IP; co-precipitating endogenous KEAP1 by immunoblot.
Test [4] deals with Flag-tagged KEAP1 (human) (UniProt Q14145). Description: co-IP; HEK-293T cells co-transfected with NRF2, Flag-KEAP1 and/or HA-PLEC (increasing PLEC); anti-Flag IP; immunoblot.

Consider “Plectin (PLEC) (from UniProt Q15149 1-4684)”, for which the binding entry in test [1] is “binds”. For the substance KEAP1 (from UniProt Q14145 1-624), the binding entry in test [2] and in test [3] was “binds” each time. Turning to “HA-tagged PLEC (in HEK-293T) (from UniProt Q15149 1-4684)”, the binding entry in test [4] is “binds”.
